Results published in patent US12661362B2, “Methods for the prevention and treatment of hearing loss” (Ting Therapeutics LLC, priority 2020, dated 2026).
Some entries share one result that the patent states for a list of compounds.

Test system: FVB/NJ mice
Experiment: Safety monitoring of drugs IP in FVB/NJ mice, with or without Cisplatin
Format: in vivo, mouse
Conditions: for weight loss: drug IP daily plus 30 mg/kg Cisplatin IP on day 2; for mortality: drug IP daily plus 30 mg/kg Cisplatin, by day 5 post-treatment
Procedure: To investigate the drugs' effects on mammalian auditory function in vivo, we first treated 5-7 weeks old FVB/NJ mice with […] drug candidates: Niclosamide (10 mg/kg/day), Ingenol (0.3 mg/kg/day), Elesclomol (5 mg/kg/day), for 4 consecutive days (IP) to monitor safety of the drugs. All tested doses were determined based on previous published data showing maximum non-toxic dose through intraperitoneal (IP) injection.
Baseline auditory brainstem response (ABR) were measured on 16 mice divided in 3 groups receiving Ingenol, Elesclomol, and Niclosamide. The mice received the drug doses described above, then on day 2 of drug injection mice also received 30 mg/kg Cisplatin (IP; 4 mice per group).

Row | SMILES | weight loss | mortality
1 | CC1=C[C@]23C(=O)[C@@H](C=C(CO)[C@@H](O)[C@]2(O)[C@H]1O)[C@H]1[C@@H](C[C@H]3C)C1(C)C [Ingenol] | more than 20% | 40-60%
2 | CN(NC(=O)CC(=O)NN(C)C(=S)c1ccccc1)C(=S)c1ccccc1 [Elesclomol] | more than 20% | 40-60%
